Data taken from publication PMC9501810, “Bitter Peptides YFYPEL, [sequence], and [sequence], Released during Gastric Digestion of Casein, Stimulate Mechanisms of Gastric Acid Secretion via Bitter Taste Receptors TAS2R16 and TAS2R38” (Journal of Agricultural and Food Chemistry, 2022).

Key:
pepsin = experiment: In vitro gastric digestion of casein with targeted UHPLC-MS/MS-MRM quantitation of peptides; type: in vitro ADME, porcine; conditions: SGF pH 3 with pepsin, 37 °C, related to the respective casein variant, n = 4
Protocol: The in vitro digestion was based on the Nature protocol established by Brodkorb et al.([30]) For this, simulated salivary fluid (SSF, containing 15.1 mM KCl, 3.7 mM KH2PO4, 13.6 mM NaHCO3, 0.15 mM MgCl2(H2O)6, 0.06 mM (NH4)2CO3, 1.1 mM HCl, and 1.5 mM CaCl2(H2O)2) and simulated gastric fluid (SGF, containing 6.9 mM KCl, 0.9 mM KH2PO4, 25.0 mM NaHCO3, 47.2 mM NaCl, 0.12 mM MgCl2(H2O)6, 0.5 mM (NH4)2CO3, 15.6 mM HCl, and 0.15 mM CaCl2(H2O)2) were prepared. A total amount of 100 mg casein was suspended in 3 mL of SSF and incubated for 5 min at 37 °C in the tube rotator. After taking a sample (500 μL, t = 0 h), 2 mL of SGF was added and the pH was adjusted to 3 with 100 μL of HCl (1 M). After addition of 125 μL of pepsin solution (80,000 U/mL in 10 mM HCl), 275 μL of H2O was added to fill up to 5 mL. This was followed by further incubation at 37 °C in a tube rotator for 6 h. 500 μL of samples was taken at 0.25, 0.5, 0.75, 1, 2, 3, 4, 5, and 6 h, respectively. The samples were frozen in liquid nitrogen and stored at −80 °C until further analysis. For MS experiments, all samples were diluted 1:1 with 10% MeCN.
All targeted proteomics LC–MS/MS measurements were performed using a Sciex ExionLC AC (Sciex, Darmstadt, Germany) coupled to a 6500+ QTrap LC–MS/MS system (Sciex, Darmstadt, Germany) operating in the positive electrospray ionization mode. Data acquisition and instrumentation control were performed with AnalystTF software (v 1.7.1; Sciex, Darmstadt, Germany). Separation was performed using a 100 × 2.1 mm, 1.7 μm, Kinetex C18 column (Phenomenex, Aschaffenburg, Germany) with a guard column of the same type with 0.1% aqueous formic acid and acetonitrile containing 0.1% formic acid at a flow rate of 0.25 mL/min. […] For the preparation of the calibration curves, five peptides were dissolved individually in D2O (600 μL) and the concentration of the stock solutions was determined by qNMR.[35] […] The data were analyzed using MultiQuant software (v 3.0.3; Sciex, Darmstadt, Germany).

[1] = In vivo gastric digestion of casein in pigs, peptides in stomach content; conditions: pigs fed 1 g casein in 5 mL H2O, stomach content after 2 h, normalized to 100 mL gastric volume; UHPLC–MS/MS-MRM; mean ± SEM, n = 6

PVVVPPFLQPEVM [bitter casein peptide βA1/A2-CN81–93]
release rate related to αS1- or β-casein after 2 h of in vitro digestion (pepsin): 65.5%

YFYPEL [bitter casein peptide αS1-CN144–149]
release rate related to αS1- or β-casein after 2 h of in vitro digestion (pepsin): 19.3%
concentration in stomach content after in vivo digestion [1]: 0.91 ± 0.03 µM

YQEPVLGPVRGPFPIIV [bitter casein peptide βA1/A2-CN193–209]
release rate related to αS1- or β-casein after 2 h of in vitro digestion (pepsin): ~100%

YYVPLGTQ [bitter casein peptide αS1-CN165–172]
concentration in stomach content after in vivo digestion [1]: 10.30 ± 0.38 µM
